Results are given in words; binding and its absence hold for the method and conditions named. Binding calls can cover weak binding; strength is not graded here.
Tests used:
Assay in all cases: differential scanning fluorimetry
[1] = target: T1, Caspr4 peptide (residues 1,301-1,308)
T1 sequence (peptide, dansylated at the N-terminus; free carboxyl at the C-terminus): ENQKEYFF

By UniProt entry, the sequences of proteins in these tests, tags left out. Where a name states a change or a piece, a line headed by the entry shows the natural chain unless it says otherwise.
UniProt Q13009: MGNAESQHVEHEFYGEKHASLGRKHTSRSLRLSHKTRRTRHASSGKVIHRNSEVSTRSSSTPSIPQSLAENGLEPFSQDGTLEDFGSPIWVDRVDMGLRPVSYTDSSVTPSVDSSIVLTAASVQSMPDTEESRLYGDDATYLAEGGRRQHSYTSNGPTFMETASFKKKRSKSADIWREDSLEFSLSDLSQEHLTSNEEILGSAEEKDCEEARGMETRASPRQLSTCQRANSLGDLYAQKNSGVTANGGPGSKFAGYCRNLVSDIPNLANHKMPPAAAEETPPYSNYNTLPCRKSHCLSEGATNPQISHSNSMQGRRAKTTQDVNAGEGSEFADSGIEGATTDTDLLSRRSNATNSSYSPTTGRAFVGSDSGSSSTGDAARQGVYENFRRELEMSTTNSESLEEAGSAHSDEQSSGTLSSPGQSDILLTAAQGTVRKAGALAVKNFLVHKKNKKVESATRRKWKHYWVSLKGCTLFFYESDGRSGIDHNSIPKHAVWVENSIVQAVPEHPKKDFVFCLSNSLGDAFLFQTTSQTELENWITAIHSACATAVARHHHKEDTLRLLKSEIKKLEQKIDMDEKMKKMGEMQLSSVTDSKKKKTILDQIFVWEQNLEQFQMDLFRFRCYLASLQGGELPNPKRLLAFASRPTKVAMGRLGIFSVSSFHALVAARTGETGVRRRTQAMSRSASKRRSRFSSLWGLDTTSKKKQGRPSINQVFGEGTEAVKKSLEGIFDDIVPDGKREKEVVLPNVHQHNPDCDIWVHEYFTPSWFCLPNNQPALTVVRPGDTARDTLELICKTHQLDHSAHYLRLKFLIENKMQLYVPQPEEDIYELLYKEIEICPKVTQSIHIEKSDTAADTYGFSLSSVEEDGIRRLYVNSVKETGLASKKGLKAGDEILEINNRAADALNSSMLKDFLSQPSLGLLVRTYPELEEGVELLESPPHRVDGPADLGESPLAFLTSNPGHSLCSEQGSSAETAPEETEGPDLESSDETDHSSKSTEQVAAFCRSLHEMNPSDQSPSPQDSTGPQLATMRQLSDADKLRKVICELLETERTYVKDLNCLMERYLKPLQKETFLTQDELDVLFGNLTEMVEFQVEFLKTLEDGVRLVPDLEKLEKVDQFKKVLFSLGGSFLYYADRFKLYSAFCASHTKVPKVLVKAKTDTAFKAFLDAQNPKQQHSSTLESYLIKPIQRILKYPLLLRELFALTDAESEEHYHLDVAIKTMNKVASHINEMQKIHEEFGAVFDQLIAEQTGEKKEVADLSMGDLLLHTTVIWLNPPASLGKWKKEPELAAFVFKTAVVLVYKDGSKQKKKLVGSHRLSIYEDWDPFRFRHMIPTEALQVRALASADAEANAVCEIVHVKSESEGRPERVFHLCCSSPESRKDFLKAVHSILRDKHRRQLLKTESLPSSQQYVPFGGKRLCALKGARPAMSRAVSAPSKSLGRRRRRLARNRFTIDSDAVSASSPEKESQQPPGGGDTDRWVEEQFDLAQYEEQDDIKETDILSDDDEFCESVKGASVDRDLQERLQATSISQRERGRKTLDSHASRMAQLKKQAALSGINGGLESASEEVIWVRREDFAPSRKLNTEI

[2] = target: T2, Neurexin peptide (residues 1,470-1,477)
T2 sequence (peptide, dansylated at the N-terminus; free carboxyl at the C-terminus): NKDKEYYV

[3] = target: T3, Syndecan1 peptide (residues 303-310)
T3 sequence (peptide, dansylated at the N-terminus; free carboxyl at the C-terminus): TKQEEFYA

binding [1]: binds
binding [2]: binds
binding [3]: binds
Substance: Tiam1 PDZ domain (from UniProt Q13009) (domain or fragment)
